The results in this text go back to PubChem BioAssay AID192 (DTP/NCI, 2004).

The list shows only some results of the screen, not a fair sample: it covers a few groups of compounds. Not every dose and run of a compound is shown. T/C is the treated group as % of the vehicle group. Where survival is the endpoint, the PubChem record calls one and a half times the control and up active, and a quarter to a half above the control has no call in these data; cut-offs in other NCI protocols can differ. Schedules are NCI's codes, taken here to give the interval after Q, in days (D) or hours (H), and the number of doses after X. Some T/C values are marked as having no survivor count here; that says nothing about deaths at the dose. Some entries hold several experiments; the values are given in rising order.

The test system of this experiment is BDF1 mice, B16 melanoma ip, median survival T/C. As to the kind of experiment: NCI In Vivo Anticancer Drug Screen. Data for tumor model B16 Melanoma (intraperitoneal) in B6D2F1 (BDF1) mice. Conditions: T/C endpoint: median survival time, schedule: Q01DX009 (ip), higher T/C = longer survival. How it is done: The antitumor activity of compounds was measured in mice bearing transplantable tumors. Survival or tumor size were measured and the results are expressed as the measurement made in the treated group (T) divided by the measurement made in the vehicle treated control group (C). The tumor model used in this assay is B16 Melanoma (intraperitoneal) in B6D2F1 (BDF1) mice

Setting [1] is: dose: 0.78 mg/kg/injection, vehicle: saline with Tween-80.
The mark [2] stands for this setting: dose: 0.5 mg/kg/injection, vehicle: saline + alcohol.
[3] abbreviates: dose: 1.0 mg/kg/injection, vehicle: saline + alcohol.
Where [4] appears, read: dose: 2.0 mg/kg/injection, vehicle: saline + alcohol.

Regarding `CC(=O)OC[C@]12C[C@H](OC(=O)CC(C)C)C(C)=C[C@H]1O[C@@H]1[C@H](O)[C@@H](O)[C@@]2(C)[C@@]12CO2`, the T/C is, setting by setting: (dose: 0.25 mg/kg/injection, vehicle: saline, evaluated on day 50) 136 % of control [survivor count not shown]; (dose: 0.25 mg/kg/injection, vehicle: saline, evaluated on day 60) 113 % of control [survivor count not shown]; (dose: 0.5 mg/kg/injection, vehicle: saline, evaluated on day 50) 141 % of control [survivor count not shown]; (dose: 0.5 mg/kg/injection, vehicle: saline, evaluated on day 60) 137 [survivor count not shown] and 142 % of control [survivor count not shown]; (dose: 1.0 mg/kg/injection, vehicle: saline, evaluated on day 50) 139 % of control [survivor count not shown]; (dose: 1.0 mg/kg/injection, vehicle: saline, evaluated on day 60) 115 [survivor count not shown], 134 [survivor count not shown], 156 % of control [survivor count not shown]. The T/C runs as follows: (dose: 2.0 mg/kg/injection, vehicle: saline, evaluated on day 50) 136 % of control [survivor count not shown]; (dose: 2.0 mg/kg/injection, vehicle: saline, evaluated on day 60) 142 [survivor count not shown] and 152 % of control [survivor count not shown]; (dose: 4.0 mg/kg/injection, vehicle: saline) 133 % of control [survivor count not shown].
On to `CC1=C[C@H]2O[C@@H]3C[C@H]4OC(=O)/C=C\C=C\C5OC(C/C(C)=C\C(=O)OCC2(CC1)[C@]4(C)[C@]31CO1)OC5C` (some centres not stated), for which the T/C was 117 % of control [survivor count not shown] under setting [1]; 128 % of control [survivor count not shown] (dose: 1.56 mg/kg/injection, vehicle: saline with Tween-80, evaluated on day 45); 90 % of control [survivor count not shown] (dose: 1.56 mg/kg/injection, vehicle: saline with Tween-80, evaluated on day 50); 129 % of control [survivor count not shown] (dose: 3.13 mg/kg/injection, vehicle: saline with Tween-80, evaluated on day 45); 94 % of control [survivor count not shown] (dose: 3.13 mg/kg/injection, vehicle: saline with Tween-80, evaluated on day 50); 94 % of control [survivor count not shown] (dose: 6.25 mg/kg/injection, vehicle: saline with Tween-80, evaluated on day 50).
With `CC1=C[C@H]2O[C@@H]3[C@H](O)[C@@H](O)[C@](C)(C2(COC(=O)CCl)CC1)[C@@]31CO1` (some centres not stated), the T/C under setting [2] is 108 % of control [survivor count not shown]; the T/C under setting [3] is 112 % of control [survivor count not shown]; the T/C (dose: 2.0 mg/kg/injection, vehicle: distilled water + Tween-80) is 138 % of control [survivor count not shown]; the T/C under setting [4] was 112 % of control [survivor count not shown]; the T/C (dose: 4.0 mg/kg/injection, vehicle: distilled water + Tween-80) was 138 % of control [survivor count not shown]; the T/C (dose: 4.0 mg/kg/injection, vehicle: saline + alcohol) was 127 % of control [survivor count not shown]. Further, the T/C (dose: 8.0 mg/kg/injection, vehicle: saline + alcohol) was 145 % of control [survivor count not shown].
With `CC1=CC2OC3CC4OC(=O)/C=C/C=C/C(C(C)O)OCC/C(C)=C/C(=O)OCC2(CC1)C4(C)C31CO1` (configuration not stated), the T/C was 106 % of control [survivor count not shown] (dose: 0.39 mg/kg/injection, vehicle: suspension in saline); 141 [survivor count not shown] and 190 % of control [survivor count not shown] under setting [1]; 126 % of control [survivor count not shown] (dose: 0.78 mg/kg/injection, vehicle: suspension in saline); 157 % of control [survivor count not shown] (dose: 1.56 mg/kg/injection, vehicle: saline with Tween-80); 269 % of control [survivor count not shown] (dose: 3.12 mg/kg/injection, vehicle: saline with Tween-80); 103 % of control [survivor count not shown] (dose: 3.12 mg/kg/injection, vehicle: suspension in saline). For the same molecule, where the note is “dose: 6.25 mg/kg/injection, vehicle: suspension in saline”, the T/C is 126 % of control [survivor count not shown].
`CC1=C[C@H]2O[C@@H]3[C@H](O)[C@@H](O)[C@](C)([C@@]2(CO)CC1)[C@@]31CO1`: the T/C is 108 % of control [survivor count not shown] (dose: 0.5 mg/kg/injection, vehicle: saline) and 107 % of control [survivor count not shown] (dose: 2.0 mg/kg/injection, vehicle: saline).
For the molecule `CC(=O)OC[C@]12CCC(C)=C[C@H]1O[C@H]1C(=O)[C@@H](OC(C)=O)[C@@]2(C)[C@]12CO2`, the T/C by setting is: under setting [2], 126 % of control [survivor count not shown]; under setting [4], 133 % of control [survivor count not shown].
Turning to `C=C(C)C(=O)OC[C@]12CCC(C)=C[C@H]1O[C@@H]1[C@H](O)[C@@H](O)[C@@]2(C)[C@@]12CO2`, the T/C runs as follows: (dose: 0.12 mg/kg/injection, vehicle: saline + alcohol) 120 % of control [survivor count not shown]; (dose: 0.25 mg/kg/injection, vehicle: saline + alcohol) 132 % of control [survivor count not shown]; under setting [2], 145 % of control [survivor count not shown]; under setting [3], 143 % of control [survivor count not shown].
Consider `C=C(C)C(=O)OCC12CC(=O)C(C)=CC1OC1C(=O)C(OC(=O)C(=C)C)C2(C)C12CO2` (configuration not stated), for which the T/C reads like this: (dose: 0.25 mg/kg/injection, vehicle: water) 138 % of control [survivor count not shown]; (dose: 0.5 mg/kg/injection, vehicle: water) 134 % of control [survivor count not shown]; (dose: 1.0 mg/kg/injection, vehicle: water) 145 % of control [survivor count not shown]; (dose: 2.0 mg/kg/injection, vehicle: water) 153 % of control [survivor count not shown]; (dose: 4.0 mg/kg/injection, vehicle: water) 148 % of control [survivor count not shown].
